The record followed here is PMC9525119.

The chains behind the UniProt entries cited, without tags or fusion partners.
UniProt Q8BG87: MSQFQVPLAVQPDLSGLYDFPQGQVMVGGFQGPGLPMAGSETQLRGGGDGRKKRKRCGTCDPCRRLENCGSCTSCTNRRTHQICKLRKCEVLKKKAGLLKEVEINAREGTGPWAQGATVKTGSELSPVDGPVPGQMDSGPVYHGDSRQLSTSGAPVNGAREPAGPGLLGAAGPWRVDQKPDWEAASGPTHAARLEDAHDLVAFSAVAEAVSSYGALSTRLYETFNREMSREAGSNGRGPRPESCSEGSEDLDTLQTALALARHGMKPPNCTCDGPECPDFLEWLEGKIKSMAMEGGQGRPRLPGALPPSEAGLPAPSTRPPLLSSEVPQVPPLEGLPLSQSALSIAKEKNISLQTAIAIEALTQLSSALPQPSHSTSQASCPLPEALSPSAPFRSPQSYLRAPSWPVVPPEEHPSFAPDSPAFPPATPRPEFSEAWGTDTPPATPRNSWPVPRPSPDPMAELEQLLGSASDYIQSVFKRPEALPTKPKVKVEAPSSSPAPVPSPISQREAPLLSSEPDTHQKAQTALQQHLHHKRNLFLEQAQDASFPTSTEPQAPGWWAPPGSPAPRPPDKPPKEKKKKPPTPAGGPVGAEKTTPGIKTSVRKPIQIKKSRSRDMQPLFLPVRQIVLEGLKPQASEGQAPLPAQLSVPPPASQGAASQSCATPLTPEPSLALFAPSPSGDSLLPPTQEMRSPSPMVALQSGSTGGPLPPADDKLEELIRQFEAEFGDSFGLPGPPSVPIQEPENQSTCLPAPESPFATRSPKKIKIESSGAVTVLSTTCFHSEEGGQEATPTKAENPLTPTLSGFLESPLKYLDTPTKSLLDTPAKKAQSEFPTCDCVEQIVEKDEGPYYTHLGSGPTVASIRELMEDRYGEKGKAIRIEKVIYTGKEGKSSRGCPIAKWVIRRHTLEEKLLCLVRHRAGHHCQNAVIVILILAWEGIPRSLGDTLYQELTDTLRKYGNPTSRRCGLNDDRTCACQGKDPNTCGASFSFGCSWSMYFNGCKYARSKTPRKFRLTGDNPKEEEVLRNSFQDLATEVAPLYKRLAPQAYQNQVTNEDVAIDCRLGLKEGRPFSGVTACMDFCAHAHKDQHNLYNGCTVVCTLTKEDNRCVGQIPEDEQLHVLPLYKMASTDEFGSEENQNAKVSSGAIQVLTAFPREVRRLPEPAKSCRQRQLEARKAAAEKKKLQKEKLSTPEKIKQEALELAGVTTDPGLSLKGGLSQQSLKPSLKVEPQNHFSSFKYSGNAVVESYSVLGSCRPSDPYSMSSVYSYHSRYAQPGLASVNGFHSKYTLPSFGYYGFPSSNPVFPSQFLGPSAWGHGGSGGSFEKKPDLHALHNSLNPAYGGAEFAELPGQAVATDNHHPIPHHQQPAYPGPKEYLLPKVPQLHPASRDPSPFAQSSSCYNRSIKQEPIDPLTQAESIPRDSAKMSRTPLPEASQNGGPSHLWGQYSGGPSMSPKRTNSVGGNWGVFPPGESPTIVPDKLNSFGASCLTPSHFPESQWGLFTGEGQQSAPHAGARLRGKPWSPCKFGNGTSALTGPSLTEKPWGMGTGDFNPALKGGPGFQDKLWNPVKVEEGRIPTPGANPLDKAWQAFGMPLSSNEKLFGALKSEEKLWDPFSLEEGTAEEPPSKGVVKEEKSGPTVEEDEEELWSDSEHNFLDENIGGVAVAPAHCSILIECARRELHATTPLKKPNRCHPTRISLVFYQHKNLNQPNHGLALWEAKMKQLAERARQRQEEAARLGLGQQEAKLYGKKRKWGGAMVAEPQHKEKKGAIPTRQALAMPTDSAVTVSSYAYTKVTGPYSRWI
UniProt O43151: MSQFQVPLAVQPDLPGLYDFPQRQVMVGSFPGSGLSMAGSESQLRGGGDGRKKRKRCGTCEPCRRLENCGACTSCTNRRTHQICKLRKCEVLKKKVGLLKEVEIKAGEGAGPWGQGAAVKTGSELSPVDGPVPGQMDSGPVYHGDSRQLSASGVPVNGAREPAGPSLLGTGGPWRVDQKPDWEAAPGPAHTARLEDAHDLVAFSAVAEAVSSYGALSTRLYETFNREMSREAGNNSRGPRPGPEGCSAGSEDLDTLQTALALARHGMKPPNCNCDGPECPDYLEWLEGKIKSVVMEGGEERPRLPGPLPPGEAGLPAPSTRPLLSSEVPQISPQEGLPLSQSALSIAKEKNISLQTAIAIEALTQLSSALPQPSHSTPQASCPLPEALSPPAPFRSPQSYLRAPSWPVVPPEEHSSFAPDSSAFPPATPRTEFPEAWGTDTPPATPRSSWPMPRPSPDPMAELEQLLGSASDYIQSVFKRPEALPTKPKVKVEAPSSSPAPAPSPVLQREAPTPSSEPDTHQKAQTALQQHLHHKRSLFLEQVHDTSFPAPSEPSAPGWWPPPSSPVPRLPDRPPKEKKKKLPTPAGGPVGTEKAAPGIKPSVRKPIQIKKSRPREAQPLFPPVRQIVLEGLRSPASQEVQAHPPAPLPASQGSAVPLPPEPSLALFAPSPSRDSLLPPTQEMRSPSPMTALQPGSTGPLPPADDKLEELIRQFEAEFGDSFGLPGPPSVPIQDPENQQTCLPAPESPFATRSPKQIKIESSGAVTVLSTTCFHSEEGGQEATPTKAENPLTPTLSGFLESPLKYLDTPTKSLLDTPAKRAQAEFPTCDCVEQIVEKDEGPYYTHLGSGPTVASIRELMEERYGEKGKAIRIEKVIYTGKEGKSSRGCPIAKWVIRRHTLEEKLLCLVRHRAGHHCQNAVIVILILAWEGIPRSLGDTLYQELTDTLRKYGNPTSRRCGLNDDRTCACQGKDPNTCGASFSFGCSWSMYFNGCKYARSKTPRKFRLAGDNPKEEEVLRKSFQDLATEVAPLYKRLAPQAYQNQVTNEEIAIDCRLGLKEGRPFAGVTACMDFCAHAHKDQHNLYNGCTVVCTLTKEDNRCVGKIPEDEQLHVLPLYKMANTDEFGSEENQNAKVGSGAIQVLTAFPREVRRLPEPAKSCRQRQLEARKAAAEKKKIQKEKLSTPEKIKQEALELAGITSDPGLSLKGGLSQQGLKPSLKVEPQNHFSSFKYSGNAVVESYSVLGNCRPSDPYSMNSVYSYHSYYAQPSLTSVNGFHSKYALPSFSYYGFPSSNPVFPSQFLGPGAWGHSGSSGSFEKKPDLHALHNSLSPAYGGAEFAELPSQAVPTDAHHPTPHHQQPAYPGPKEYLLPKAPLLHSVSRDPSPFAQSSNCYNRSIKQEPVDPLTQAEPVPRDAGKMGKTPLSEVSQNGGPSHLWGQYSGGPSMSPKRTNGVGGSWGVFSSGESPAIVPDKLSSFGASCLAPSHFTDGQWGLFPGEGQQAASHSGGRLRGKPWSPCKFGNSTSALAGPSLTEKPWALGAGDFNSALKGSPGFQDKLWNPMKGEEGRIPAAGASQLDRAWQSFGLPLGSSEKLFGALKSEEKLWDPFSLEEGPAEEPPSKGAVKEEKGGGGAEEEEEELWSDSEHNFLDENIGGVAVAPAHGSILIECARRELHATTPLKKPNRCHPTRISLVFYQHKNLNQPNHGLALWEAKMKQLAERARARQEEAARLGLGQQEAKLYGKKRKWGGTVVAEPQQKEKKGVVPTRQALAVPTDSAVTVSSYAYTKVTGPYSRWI
UniProt Q6NZM9: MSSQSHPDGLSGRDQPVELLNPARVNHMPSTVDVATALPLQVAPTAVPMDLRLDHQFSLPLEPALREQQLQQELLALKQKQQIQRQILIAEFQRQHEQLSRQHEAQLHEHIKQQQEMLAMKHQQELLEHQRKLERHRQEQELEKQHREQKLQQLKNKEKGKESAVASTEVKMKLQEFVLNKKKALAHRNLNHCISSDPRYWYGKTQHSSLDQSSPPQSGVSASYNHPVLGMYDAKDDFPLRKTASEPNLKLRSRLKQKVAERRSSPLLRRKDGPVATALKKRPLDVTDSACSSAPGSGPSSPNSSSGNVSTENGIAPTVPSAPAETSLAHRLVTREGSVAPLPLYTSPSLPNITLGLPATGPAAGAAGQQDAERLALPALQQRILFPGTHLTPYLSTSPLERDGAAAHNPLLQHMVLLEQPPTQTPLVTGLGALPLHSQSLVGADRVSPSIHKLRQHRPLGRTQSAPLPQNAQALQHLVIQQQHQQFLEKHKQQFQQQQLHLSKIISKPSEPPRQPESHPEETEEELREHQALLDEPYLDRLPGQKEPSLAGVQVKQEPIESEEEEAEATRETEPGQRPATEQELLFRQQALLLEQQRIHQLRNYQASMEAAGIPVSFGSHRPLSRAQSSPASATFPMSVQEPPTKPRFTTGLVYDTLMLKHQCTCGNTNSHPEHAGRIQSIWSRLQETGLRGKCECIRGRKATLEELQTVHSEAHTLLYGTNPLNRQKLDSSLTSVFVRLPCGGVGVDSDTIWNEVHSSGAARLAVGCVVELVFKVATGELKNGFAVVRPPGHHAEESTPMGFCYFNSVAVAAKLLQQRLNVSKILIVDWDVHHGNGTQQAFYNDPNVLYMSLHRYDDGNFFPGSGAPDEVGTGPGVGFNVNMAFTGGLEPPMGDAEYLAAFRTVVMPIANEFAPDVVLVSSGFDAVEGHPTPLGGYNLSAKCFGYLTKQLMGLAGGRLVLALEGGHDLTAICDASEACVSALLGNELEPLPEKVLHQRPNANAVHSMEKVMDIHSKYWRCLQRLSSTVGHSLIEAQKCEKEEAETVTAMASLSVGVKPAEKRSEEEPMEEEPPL
UniProt P40763: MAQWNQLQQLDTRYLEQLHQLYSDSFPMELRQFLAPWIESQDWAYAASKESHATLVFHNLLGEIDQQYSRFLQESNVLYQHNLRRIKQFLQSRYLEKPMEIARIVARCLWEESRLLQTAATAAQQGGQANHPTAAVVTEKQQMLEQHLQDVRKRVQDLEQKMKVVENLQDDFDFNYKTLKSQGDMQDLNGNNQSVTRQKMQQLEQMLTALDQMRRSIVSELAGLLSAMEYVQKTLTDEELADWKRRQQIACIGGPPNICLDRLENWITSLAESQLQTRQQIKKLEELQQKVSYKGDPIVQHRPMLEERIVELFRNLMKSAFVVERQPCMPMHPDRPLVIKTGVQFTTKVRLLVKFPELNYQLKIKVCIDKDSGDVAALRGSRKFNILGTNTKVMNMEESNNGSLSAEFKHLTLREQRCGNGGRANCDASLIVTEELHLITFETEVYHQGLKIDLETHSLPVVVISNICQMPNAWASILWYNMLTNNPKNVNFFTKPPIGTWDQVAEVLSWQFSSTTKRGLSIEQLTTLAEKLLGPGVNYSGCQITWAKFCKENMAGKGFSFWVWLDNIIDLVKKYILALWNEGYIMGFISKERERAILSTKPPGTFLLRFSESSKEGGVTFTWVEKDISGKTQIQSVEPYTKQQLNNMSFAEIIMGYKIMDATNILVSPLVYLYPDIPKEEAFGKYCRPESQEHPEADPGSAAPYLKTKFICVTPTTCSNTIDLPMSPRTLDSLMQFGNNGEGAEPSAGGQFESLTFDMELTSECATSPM
UniProt P42227: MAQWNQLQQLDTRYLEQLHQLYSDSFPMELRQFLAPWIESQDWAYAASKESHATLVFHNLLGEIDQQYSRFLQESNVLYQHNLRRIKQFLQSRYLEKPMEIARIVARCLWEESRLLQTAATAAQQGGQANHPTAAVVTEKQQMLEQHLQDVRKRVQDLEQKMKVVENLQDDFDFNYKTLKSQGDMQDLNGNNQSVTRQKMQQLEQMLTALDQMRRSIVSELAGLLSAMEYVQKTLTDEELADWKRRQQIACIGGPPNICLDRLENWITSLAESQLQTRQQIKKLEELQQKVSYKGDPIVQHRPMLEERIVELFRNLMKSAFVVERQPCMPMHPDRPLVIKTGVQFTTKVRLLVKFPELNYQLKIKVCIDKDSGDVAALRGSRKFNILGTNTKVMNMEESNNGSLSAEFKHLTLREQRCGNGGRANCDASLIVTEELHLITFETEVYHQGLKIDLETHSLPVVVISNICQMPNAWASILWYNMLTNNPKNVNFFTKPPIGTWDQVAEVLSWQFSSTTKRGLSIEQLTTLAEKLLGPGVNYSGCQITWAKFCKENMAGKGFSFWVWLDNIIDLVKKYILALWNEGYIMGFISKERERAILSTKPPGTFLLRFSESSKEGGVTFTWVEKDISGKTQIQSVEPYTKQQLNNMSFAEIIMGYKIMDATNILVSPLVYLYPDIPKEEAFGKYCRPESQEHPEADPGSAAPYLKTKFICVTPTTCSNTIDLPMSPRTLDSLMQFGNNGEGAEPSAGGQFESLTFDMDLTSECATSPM

These are yes or no findings as the source states them, for the method shown. Binding seen in cells or lysates may run through a third protein. Some entries that bind do so weakly or less than the wild type.

Test [1] concerns the target TET3 (mouse) (mouse (endogenous in ARC tissue and GT1-7 cells)) (UniProt Q8BG87). The test is described as follows: co-IP; anti-TET3 (rabbit polyclonal) on Protein G Dynabeads; lysate of mouse GT1-7 cells treated with Lept H (1 × 10^-8 M) for 2 hours; 0.5% Triton X-100, NaCl to 200 mM, 4°C, 4 hours; immunoblot. For orientation: In western blotting, separated proteins are transferred to a membrane and probed.

Test [2] has the same target. The test is described as follows: co-IP; anti-TET3 (rabbit polyclonal) on Protein G Dynabeads; lysate of ARCs from mice fasted 22 hours and treated with leptin 2 hours; 0.5% Triton X-100, NaCl to 200 mM, 4°C, 4 hours; immunoblot; preimmune IgG as control.
Test [3] has as its target TET3 (human) (human (endogenous in SH-SY5Y)) (UniProt O43151). The test can be described thus: co-IP; anti-TET3 (rabbit polyclonal) on Protein G Dynabeads; lysate of human SH-SY5Y cells treated with Lept H (1 × 10^-8 M) for 2 hours; 0.5% Triton X-100, NaCl to 200 mM, 4°C, 4 hours; immunoblot.

As for “HDAC4 (mouse) (from UniProt Q6NZM9 1-1076)”, the binding entry in test [1] and in test [2] was “binds” throughout.
As for “NCOR1 (human) (from UniProt O75376 1-2440)”, the binding entry in test [3] was “binds”.
With “NCOR1 (mouse) (from UniProt Q60974 1-2453)”, the binding entry in test [1] and in test [2] was “binds” each time.
Turning to “STAT3 (human) (from UniProt P40763 1-770)”, the binding result in test [3] was “binds”.
Consider “STAT3 (mouse) (from UniProt P42227 1-770)”, for which the binding entry in test [1] and in test [2] was “binds” in each case.
On to “p-STAT3 (human STAT3 phosphorylated at Tyr705) (from UniProt P40763 1-770)”, for which the binding result in test [3] is recorded as “binds”.
Consider “p-STAT3 (mouse STAT3 phosphorylated at Tyr705) (from UniProt P42227 1-770)”, for which the binding entry in test [1] and in test [2] was “binds” in each case.
